Where two headings read alike, the source gives them in different places. No constants are given. Whether binding was seen depends on the method and setting. For some assays here: In cells and extracts the contact can be indirect. Some results given as binding are weak or reduced against the parent protein; the word gives no strength. For some assays here: Where a sequence is shown, tags or fusion partners need not be part of it.
T1: GST-CDHR5 CD (human) (UniProt Q9HBB8)
T1 sequence: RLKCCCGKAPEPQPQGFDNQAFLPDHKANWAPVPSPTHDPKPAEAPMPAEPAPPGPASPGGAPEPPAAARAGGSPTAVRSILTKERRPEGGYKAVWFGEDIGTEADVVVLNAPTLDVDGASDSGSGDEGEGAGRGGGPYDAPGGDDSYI

Sequences of proteins named here, by UniProt entry; tags and fusion partners are left off. A change or cut given only in a name is not applied to a line headed by its entry. A line that says so, or that is headed by a name, gives the form on record, which may keep a tag or linker. Residues count along the entry.
UniProt Q15599: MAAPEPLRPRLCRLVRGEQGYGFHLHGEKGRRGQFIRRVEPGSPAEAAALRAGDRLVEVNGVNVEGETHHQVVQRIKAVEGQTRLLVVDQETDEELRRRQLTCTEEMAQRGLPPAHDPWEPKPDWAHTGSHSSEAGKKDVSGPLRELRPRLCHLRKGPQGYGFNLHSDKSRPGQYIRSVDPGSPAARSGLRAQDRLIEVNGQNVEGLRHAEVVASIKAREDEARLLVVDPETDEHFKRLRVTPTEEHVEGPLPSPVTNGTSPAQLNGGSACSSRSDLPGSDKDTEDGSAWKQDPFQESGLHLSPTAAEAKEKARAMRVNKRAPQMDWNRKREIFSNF
myc-tagged E3KARP-FL ΔPBM: residues 1-329 of Q15599
myc-tagged E3KARP-PDZ12: residues 1-284 of Q15599
myc-tagged E3KARP-PDZ2: residues 150-284 of Q15599
UniProt P15311: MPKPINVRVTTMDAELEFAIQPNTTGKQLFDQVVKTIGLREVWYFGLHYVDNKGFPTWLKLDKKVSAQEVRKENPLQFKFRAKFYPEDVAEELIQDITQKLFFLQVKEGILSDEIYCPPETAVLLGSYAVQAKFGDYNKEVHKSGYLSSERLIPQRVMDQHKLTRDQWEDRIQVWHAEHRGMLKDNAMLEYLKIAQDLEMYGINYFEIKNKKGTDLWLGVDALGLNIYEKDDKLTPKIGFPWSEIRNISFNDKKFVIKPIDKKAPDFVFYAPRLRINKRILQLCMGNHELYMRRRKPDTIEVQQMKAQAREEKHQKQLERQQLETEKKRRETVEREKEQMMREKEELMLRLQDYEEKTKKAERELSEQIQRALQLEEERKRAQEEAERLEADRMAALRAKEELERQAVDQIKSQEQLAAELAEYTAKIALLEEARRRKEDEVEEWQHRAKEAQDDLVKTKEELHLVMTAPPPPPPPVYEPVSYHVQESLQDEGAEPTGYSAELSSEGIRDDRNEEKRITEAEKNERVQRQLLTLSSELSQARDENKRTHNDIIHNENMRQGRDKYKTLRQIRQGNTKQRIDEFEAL

T2: GST-CDHR5 CD I845R (human) (UniProt Q9HBB8)
T2 sequence: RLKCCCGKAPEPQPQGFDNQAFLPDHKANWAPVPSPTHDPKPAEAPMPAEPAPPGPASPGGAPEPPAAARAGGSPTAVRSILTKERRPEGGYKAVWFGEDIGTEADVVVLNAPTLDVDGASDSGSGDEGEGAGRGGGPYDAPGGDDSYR


Tests used:
Assay in all cases: pull-down
GST-CDHR5 CD (human) [1] = target: T1, GST-CDHR5 CD (human)
GST-CDHR5 CD (human) [2] = target: T1, GST-CDHR5 CD (human); remark: listed apart in the source
[3] = target: myc-tagged E3KARP full-length (human) (UniProt Q15599)
GST-CDHR5 CD (human) [4] = target: T1, GST-CDHR5 CD (human); remark: listed apart in the source
[5] = target: T2, GST-CDHR5 CD I845R (human)

| Molecule | binding (GST-CDHR5 CD (human) [2]) | also measured |
| --- | --- | --- |
| EGFP-tagged Ezrin-T567D (from UniProt P15311 1-586) | no binding | binding (GST-CDHR5 CD (human) [1]): no binding |
| myc-tagged E3KARP-FL ΔPBM (from UniProt Q15599-1 1-329) (domain or fragment) | binds | – |
| EGFP-tagged Ezrin-WT (from UniProt P15311 1-586) | no binding | binding (GST-CDHR5 CD (human) [1]): no binding |
| myc-tagged EBP50-PDZ1 (from UniProt O14745-1 1-148) (domain or fragment) | binds | – |
| EGFP-tagged Ezrin-NERMAD (isolated FERM domain) (from UniProt P15311 1-297) (domain or fragment) | – | binding [3]: binds |
| myc-tagged E3KARP-PDZ2 (from UniProt Q15599-1 150-284) (domain or fragment) | binds | – |
| myc-tagged E3KARP full-length (from UniProt Q15599-1 1-337) | binds | binding (GST-CDHR5 CD (human) [4]): binds weakly |
| myc-tagged E3KARP-PDZ12 (from UniProt Q15599-1 1-284) (domain or fragment) | binds | – |
| myc-tagged EBP50-FL ΔPBM (from UniProt O14745-1 1-353) (domain or fragment) | binds | – |
| myc-tagged EBP50-PDZ12 (domain or fragment, UniProt O14745-1 1-298) MSADAAAGAPLPRLCCLEKGPNGYGFHLHGEKGKLGQYIRLVEPGSPAEKAGLLAGDRLVEVNGENVEKETHQQVVSRIRAALNAVRLLVVDPETDEQLQKLGVQVREELLRAQEAPGQAEPPAAAEVQGAGNENEPREADKSHPEQRELRPRLCTMKKGPSGYGFNLHSDKSKPGQFIRSVDPDSPAEASGLRAQDRIVEVNGVCMEGKQHGDVVSAIRAGGDETKLLVVDRETDEFFKKCRVIPSQEHLNGPLPVPFTNGEIQKENSREALAEAALESPRPALVRSASSDTSEELN | binds | – |
| His-NEON-EBP50 PDZ1PDZ2 (domain or fragment, UniProt O14745-1 1-298) MSADAAAGAPLPRLCCLEKGPNGYGFHLHGEKGKLGQYIRLVEPGSPAEKAGLLAGDRLVEVNGENVEKETHQQVVSRIRAALNAVRLLVVDPETDEQLQKLGVQVREELLRAQEAPGQAEPPAAAEVQGAGNENEPREADKSHPEQRELRPRLCTMKKGPSGYGFNLHSDKSKPGQFIRSVDPDSPAEASGLRAQDRIVEVNGVCMEGKQHGDVVSAIRAGGDETKLLVVDRETDEFFKKCRVIPSQEHLNGPLPVPFTNGEIQKENSREALAEAALESPRPALVRSASSDTSEELN | – | binding [5]: no binding |

Reference: paper doi:10.1101/2023.02.22.529570 (bioRxiv, 2023)
